Laboratory results published in PMC10626543.

Chains of the proteins cited; added tags and fusions are not shown. Residues count along the entry.
UniProt P48678, residues 1-647: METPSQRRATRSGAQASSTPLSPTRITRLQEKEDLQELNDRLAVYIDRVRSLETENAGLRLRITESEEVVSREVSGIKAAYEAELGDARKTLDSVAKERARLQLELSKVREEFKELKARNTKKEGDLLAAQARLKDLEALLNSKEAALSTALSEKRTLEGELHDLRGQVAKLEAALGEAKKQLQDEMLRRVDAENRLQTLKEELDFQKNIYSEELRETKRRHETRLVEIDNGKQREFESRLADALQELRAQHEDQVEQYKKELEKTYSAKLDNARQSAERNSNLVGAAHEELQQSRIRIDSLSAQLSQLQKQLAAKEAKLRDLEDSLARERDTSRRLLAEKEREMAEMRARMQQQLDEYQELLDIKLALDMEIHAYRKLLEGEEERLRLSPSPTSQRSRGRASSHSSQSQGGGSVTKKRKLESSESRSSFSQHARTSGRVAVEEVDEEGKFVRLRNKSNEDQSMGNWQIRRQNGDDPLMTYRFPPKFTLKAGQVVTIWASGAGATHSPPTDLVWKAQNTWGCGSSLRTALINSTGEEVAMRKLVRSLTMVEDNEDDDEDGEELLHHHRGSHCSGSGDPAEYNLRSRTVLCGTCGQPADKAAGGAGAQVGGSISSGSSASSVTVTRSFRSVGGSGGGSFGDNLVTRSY

B1: Map2k3 (protein, UniProt O09110 1-347)
chain: MESPAASPPASLPQTKGKSKRKKDLRISCVSKPPVSNPTPPRNLDSRTFITIGDRNFEVEADDLVTISELGRGAYGVVEKVRHAQSGTIMAVKRIRATVNTQEQKRLLMDLDINMRTVDCFYTVTFYGALFREGDVWICMELMDTSLDKFYRKVLEKNMKIPEDILGEIAVSIVRALEHLHSKLSVIHRDVKPSNVLINKEGHVKMCDFGISGYLVDSVAKTMDAGCKPYMAPERINPELNQKGYNVKSDVWSLGITMIEMAILRFPYESWGTPFQQLKQVVEEPSPQLPADQFSPEFVDFTSQCLRKNPAERMSYLELMEHPFFTLHKTKKTDIAAFVKEILGEDS
B2: Ppp1r3a (protein, UniProt Q99MR9 1-1089)
chain: MEPAEEPGQISKDNFLEVPNLSDSVCEDEEVKATFKPGFSPQPSRRGSGSSEDMYLDTPTSASRRVSFADSLGFSLVSVKEFDCWELPSVSTDFDLSGDVFHTDEYVLSPLFDLPSSKEKLMEQLQVQKAVLESAEHLPGSSMKGIIRVLNISFEKLVYVRMSLDDWQTHYDILAEYVPNSCDGETDQFSFKISLVPPYQKEGGKVEFCIRYETSAGTFWSNNNGTNYILVCQKKRKEPEPVKPLEEAPSRQIKGCLKVKSRSKEEPLLAPEENKFETLKFTESYIPTIICSHEDKDDLGANHPNVDDINKKHDEHNGKELDLMINQRLITSQDEKNTFATDTVNFTNKAEGSEKKQAYHEINTDLFMGPLSPSLSAESSLKRDFYHSRSSSPGNEYGHPHSEEIISDMGEKGPSLGDTSSDELMQLELCSKEDLDDNANPANGSGRVCSSFDQRMACGLKNNEAGIKKTGIQDYKYSHGDSTKLEESNASSRDDYAKVDNKKEKQTCLGVNENPSKNFQSVFQTQEGHMGYPKISTEGDKANNQDLTSLLSKDITANTWAVTVDPCPSTNAKRSWREVGSGSNLEPGTSDLSSPRNFSPLTDDHLFQADRENSDSSNPENQNMNTRHRKKWNVLETQSETSETESDIAKHTKEQAEYKDMWEKTDNSRNLKATPTEHLFTCRETECYGLSSLADHGITEKAQAVTAYIIKTTLESTPESASARGKAIIAKLPQETAGNDRPIEVKETAFDPHEGRKDDSHYSLCHGDTAGVIHDNDFERESHLDICNLRVDEMKKEKTTSTCFPQKTYDKEKHGIGSVTSIDEPSQVITGNQKATSKLDLHLGVLPTDRAIFQANADLELLQELSRRTDFNAVPSAFNSDTASASRDSSQVYRHCSKKSVPSYGEEKAVTNTTLQSIPTKSEYNWHPESEVLGHAMSKPEDVFKSSEIMKSGSGGERGGGPILQQKEGSLENSQGPMFFTNEPLENLDEASSENEGLMHSGQSQCYLGDKGLVSSASATVSTQELEAQGRESLLSISTNSKIPYFLLFLIFLATVYYYDLMIGLAFYLFSLYWLYWEGGRQRESVKKK
B3: Mindy1 (De-ubiquitinating enzyme) (protein, UniProt Q76LS9 1-468)
chain: MEQPQTENPAPSKATSAETVESENHEALSGPEKHPQDKDGADADGAAGEQEPGDQTLPPAQDGENLECPPPEASSSPPGPACGTSPKVETAEVCSRPQELPQSPRIQQPELDFYCVKWIPWKGERTPIITQSTNGPCPLLAIMNILFLQWKVKLPPQKEVITSDELLTHLGNCLLSIKPQEKSEGLQLNFQQNVDDAMTVLPKLATGLDVNVRFTGVSDFEYTPECSIFDLLGIPLYHGWLVDPQSPEAVSAVGKLSYNQLVEKIITCKHSSDSNLVTEGLVAEQFLETTAAQLTYHGLCELTAAATEDELSVFFRNNHFSTMTKHKSHLYLLVTDQGFLQEEQVVWESLHNVDGDSCFCDSDFHLSHSLGKSHGAEGGGGSPEKQLQVDQDYLIALSLQQQQQPQGTLGLSDLELAQQLQQEEYQQQQAVQPVRTRAPSPQGRGATSGRPAGERRQRSKTESDCVLL
B4: Map2k4 (protein, UniProt P47809 1-397)
chain: MAAPSPSGGGGSGGGGGTPGPIGPPASGHPAVSSMQGKRKALKLNFANPPVKSTARFTLNPNTTGVQNPHIERLRTHSIESSGKLKISPEQHWDFTAEDLKDLGEIGRGAYGSVNKMVHKPSGQIMAVKRIRSTVDEKEQKQLLMDLDVVMRSSDCPYIVQFYGALFREGDCWICMELMSTSFDKFYKYVYSVLDDVIPEEILGKITLATVKALNHLKENLKIIHRDIKPSNILLDRSGNIKLCDFGISGQLVDSIAKTRDAGCRPYMAPERIDPSASRQGYDVRSDVWSLGITLYELATGRFPYPKWNSVFDQLTQVVKGDPPQLSNSEEREFSPSFINFVNLCLTKDESKRPKYKELLKHPFILMYEERTVEVACYVCKILDQMPATPSSPMYVD
B5: Ppme1 (protein, UniProt Q8BVQ5 1-386)
chain: MSALEKSMHLGRLPSRPPLPGSGGSQSGAKMRMGPGRKRDFTPVPWSQYFESMEDVEVENETGKDTFRVYKSGSEGPVLLLLHGGGHSALSWAVFTAAIISRVQCRIVALDLRGHGETKVKNSEDLSAETMAKDVGNVVEAMYGDLPPPVMLIGHSMGGAIAVHTAAANLVPSLLGLCMIDVVEGTAMDALNSMQNFLRGRPKTFKSLENAIEWSVKSGQIRNLESARVSMVGQVKQCEGITSPEGSKSIVEGIIEEEEEDEEGSESVNKRKKEDDMETKKDHPYTWRIELAKTEKYWDGWFRGLSNLFLSCPIPKLLLLAGVDRLDKDLTIGQMQGKFQMQVLPQCGHAVHEDAPDKVAEAVATFLIRHRFAEPIGGFQCVFPGC
B6: Ppp1r12b (protein, UniProt Q8BG95 1-976)
chain: MAELEHLGGKRAESARARRAEQLRRWRGSLTEQEPAERQGAGRQLQTRRGSPRVRFEDGAVFLAACSSGDTDEVKKLLARGADINTVNVDGLTALHQACIDENLDMVKFLVENRANVNQQDNEGWTPLHAAASCGYLNIAEYFISHGASVGIVNSEGEVPSDLAEEPAMKDLLLEQVKKQGVDLEQSRKEEEQQMLQDARQWLNSGRIEDVRQARSGATALHVAAAKGYSEVLRLLIQAGYELNVQDHDGWTPLHAAAHWGVKEACSILAEALCDMDIRNKLGQTPFDVADEGLVEHLEMLQKKQDVLRSEKETRNKLIESDLNSKFQSGLFKNKEKMLYEEEIPKSQDTEEENKESSSSSSEEEEGEDEVSESETEKEADKKPEATVNHSNSEIKSRIMEQIPAPAQNTFSASSARRLSSLFNKAEEPKDESPSSWRLGLRKTGSHNMLSEVANSREALRDRGSSIYRSSSSPRISALLDDKDKERENKSYFSMLVPRRLSSTSDIEEKENRESAVNLVRSGSHTRQLWRDEAKGSETPQTIAPSTYTSTYLKRTPYKSQADSTAEKTADSVSSSTPLCVITNRPAPSTANGVPAATVFSSAGTDPSVEAREKRRSYLTPVRDEEAESLRKARSRQARQTRRSTQGVTLTDLQEAEKTFSRSRAERQAQEQPGEKLEDPGGLEGSTKKQEPSAAPTKGAGEGRSLEEEPIYHRLRYPTQPDKPTTPVSPSASRPSLYTGSHLLRTSRASGPDSENSETSTHATAAKEMDTSEKGEADLDDQSSNRLSVRERRRAKDRRRGTGINFWTNDEDETDVSEEVKEALHERLSRLESGGTNPTSSDSYSDRASARARREAREARLASLTSRVEEDSNRDYKKLYESALTENQKLKTKLQEAQLELADIKAKLEKMAQQKQEKTSDRSSVLEVEKRERRALERKMSEMEEEMKVLTELKSDNQRLKDENGALIRVISKLSK
B7: Map2k6 (protein, UniProt P70236 1-334)
chain: MSQSKGKKRNPGLKIPKEAFEQPQTSSTPPRDLDSKACISIGNQNFEVKADDLEPIVELGRGAYGVVEKMRHVPSGQIMAVKRIRATVNSQEQKRLLMDLDVSMRTVDCPFTVTFYGALFREGDVWICMELMDTSLDKFYKQVIDKGQTIPEDILGKIAVSIVKALEHLHSKLSVIHRDVKPSNVLINTLGQVKMCDFGISGYLVDSVAKTIDAGCKPYMAPERINPELNQKGYSVKSDIWSLGITMIELAILRFPYDSWGTPFQQLKQVVEEPSPQLPADKFSADFVDFTSQCLKKNSKERPTYPELMQHPFFTVHESKAADVASFVKLILGD
B8: RanGap1 (protein, UniProt P46061 1-589)
chain: MASEDIAKLAETLAKTQVAGGQLSFKGKGLKLNTAEDAKDVIKEIEEFDGLEALRLEGNTVGVEAARVIAKALEKKSELKRCHWSDMFTGRLRSEIPPALISLGEGLITAGAQLVELDLSDNAFGPDGVRGFEALLKSPACFTLQELKLNNCGMGIGGGKILAAALTECHRKSSAQGKPLALKVFVAGRNRLENDGATALAEAFGIIGTLEEVHMPQNGINHPGVTALAQAFAINPLLRVINLNDNTFTEKGGVAMAETLKTLRQVEVINFGDCLVRSKGAVAIADAVRGGLPKLKELNLSFCEIKRDAALVVAEAVADKAELEKLDLNGNALGEEGCEQLQEVMDSFNMAKVLASLSDDEGEDEDEEEEGEEDDEEEEDEEDEEDDDEEEEEQEEEEEPPQRGSGEEPATPSRKILDPNSGEPAPVLSSPTPTDLSTFLSFPSPEKLLRLGPKVSVLIVQQTDTSDPEKVVSAFLKVASVFRDDASVKTAVLDAIDALMKKAFSCSSFNSNTFLTRLLIHMGLLKSEDKIKAIPSLHGPLMVLNHVVRQDYFPKALAPLLLAFVTKPNGALETCSFARHNLLQTLYNI
B9: Fbp2 (fructose-1,6-bisphosphatase isozyme 2) (protein, UniProt P70695 1-339)
chain: MTDRSPFETDMLTLTRYVMEKGRQAKGTGELTQLLNSMLTAIKAISSAVRKAGLANLYGISGSVNVTGDEVKKLDVLSNSLVINMLQSSYSTCVLVSEENKEAVITAQERRGKYVVCFDPLDGSSNIDCLASIGTIFAIYRKTTEDEPSEKDALQPGRNIVAAGYALYGSATLVALSTGQGVDLFMLDPALGEFVLVEKDVRIKKKGKIFSLNEGYAKYFDAATAEYVQKKKFPEDGSEPYGARYVGSMVADVHRTLVYGGIFMYPANQKSPNGKLRLLYECNPVAYIIEQAGGMATTGTQPVLDVKPESIHQRVPLILGSPEDVQEYLSCVQRNQAGR
B10: 14-3-3 protein gamma (protein, UniProt P61982 1-247)
chain: MVDREQLVQKARLAEQAERYDDMAAAMKNVTELNEPLSNEERNLLSVAYKNVVGARRSSWRVISSIEQKTSADGNEKKIEMVRAYREKIEKELEAVCQDVLSLLDNYLIKNCSETQYESKVFYLKMKGDYYRYLAEVATGEKRATVVESSEKAYSEAHEISKEHMQPTHPIRLGLALNYSVFYYEIQNAPEQACHLAKTAFDDAIAELDTLNEDSYKDSTLIMQLLRDNLTLWTSDQQDDDGGEGNN
B11: Lmcd1 (mouse) (protein, UniProt Q8VEE1 1-365)
chain: MAKVAKDLNPGVQKMSLGQQQSARGVACLRCKGMCSGFEPHSWRKICKSCKCSQEEHCLSSDLDDDRKIGRLLMDSKYATLTARVKGGDGIRIYKRNRMIMTNPIATGKDPTFDTITYEWAPPGVTQKLGLQYMELIPKERQPVTGTEGALYRRRQLMHQLPIYDQDPSRCRGLVENELKAMEEFVKHYKSEALGVGEVALPGQGGLPKEENKTQEKPEGTETTAPTTNGSLGDPSKEVEYVCELCKGAAPVDSPVVYADRAGYSKQWHPTCFQCIKCSEPLVDLIYFWKDGAPWCGRHYCESVRPRCSGCDEIIFSEDYQRVEDLAWHRKHFICEGCEQLLSGRAYIVTKGQLLCPTCSKSKRS

molecular target: native lamin A/C (mouse (endogenous in heart, skeletal muscle and brain)) (UniProt P48678); test: affinity purification with mass spectrometry; native lamin A/C immunoprecipitated with mAb 4C11 and Protein G Sepharose from sonicated skeletal muscle lysates of old IL10-KO and control C57Bl/6 female mice (five each); 50 mM Tris pH 7.4, 300 mM NaCl, 0.3% Triton X-100, 4°C; TMT 10-plex

binding, binds:
B1, B2, B3, B4, B5, B6, B7, B8, B9, B10, B11

Results are given in words; binding and its absence hold for the method and conditions named. In cells and extracts the contact can be indirect. A yes stands for co-enrichment or nearness to the bait. Other partners may have been found.
